PubChem BioAssay AID504804, Drosophila RNAi Screening Center – 2011
In all, the deposit lists about 19,000 reagents; shown is a random part of those that have a named target and a result. Over the whole deposit, 47 (0.25%) are marked active. 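Signals are raw, not normalised; exact z-scores behind calls not deposited; actives needed confirmation, so some wells reaching 2 SD are inactive.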 Names joined by + are all predicted targets of the reagent.

Aim: 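Fly genes whose loss lessens doxorubicin-driven cell death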 (primary screen)
Cells: Drosophila Kc cells
Reagent: long dsRNA against Drosophila genes, 0.5 µg dsRNA per well
Time to read-out: 96 h (48 h knock-down, then 48 h drug)
Challenge: doxorubicin 5 µg/ml for 48 h, added 48 h after dsRNA
Measurement: 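Viability measured as cellular ATP by luminescence after 48 h knock-down then 48 h doxorubicin at 5 µg/ml; unnormalised plate counts for each replicate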
Scale: raw ATP luminescence: higher = more viable cells, protection from doxorubicin
Active means: 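Active when both duplicate wells lie at least 2 SD above the plate mean and protection is confirmed by rescreening and independent dsRNAs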

gene | PubChem SID | SD above plate mean | raw ATP luminescence, replicate 1 | raw ATP luminescence, replicate 2 | call
CG12560 | SID104181966 | – | 44113 | 64240 | inactive
CG10352 | SID104199145 | – | 3.29e5 | 3.22e5 | inactive
beat-VII | SID104193572 | – | 2.47e5 | 3.24e5 | inactive
beat-VII | SID104194535 | – | 34370 | 49950 | inactive
beat-VII | SID104194536 | – | 33830 | 37140 | inactive
frm | SID104189545 | – | 40483 | 46637 | inactive
r-cup | SID104200267 | – | 2.74e5 | 3.03e5 | inactive
CG18809 | SID104199610 | – | 2.40e5 | 2.55e5 | inactive
zetaCOP | SID104191204 | at least 2 SD above plate mean | 99567 | 90950 | active
CG13766 | SID104182063 | – | 23993 | 35053 | inactive
Syn1 | SID104191595 | – | 63590 | 60860 | inactive
Syn1 | SID104191596 | – | 60800 | 68207 | inactive
Pal2 | SID104184299 | – | 53590 | 50533 | inactive
Nxt1 | SID104184422 | – | 47983 | 45033 | inactive
RNaseX25 | SID104191051 | – | 39387 | 37497 | inactive
CG1421 | SID104183499 | – | 62090 | 62783 | inactive
aux | SID104191953 | – | 24757 | 23273 | inactive
Su(dx) | SID104180583 | – | 1.30e5 | 79480 | inactive
emb | SID104183320 | – | 1.19e5 | 64660 | inactive
CG13671 | SID104189822 | – | 29860 | 33070 | inactive
Ctr1B + Poxm | SID104196037 | – | 55017 | 52617 | inactive
kni | SID104191683 | – | 54640 | 68423 | inactive
drongo | SID104180606 | – | 1.13e5 | 57463 | inactive
CG32432 | SID104191495 | – | 29590 | 29807 | inactive
CG32432 | SID104191496 | – | 43280 | 39970 | inactive
CG32432 | SID104191536 | – | 70020 | 59697 | inactive
CG31029 | SID104195214 | – | 63600 | 60770 | inactive
mRpS18C | SID104196330 | – | 40250 | 36350 | inactive
Ilp5 | SID104188790 | – | 1.41e5 | 1.55e5 | inactive
CCT5 | SID104187149 | – | 73427 | 55317 | inactive
amd | SID104182400 | – | 60413 | 57127 | inactive
amd | SID104183275 | – | 59170 | 60623 | inactive
SF2 | SID104196637 | – | 56640 | 52400 | inactive
Yp1 | SID104198523 | – | 3.08e5 | 3.22e5 | inactive
Gyc89Db | SID104194801 | – | 46067 | 59160 | inactive
Grx1 | SID104190519 | – | 47343 | 31210 | inactive
Git | SID104186412 | – | 57597 | 58040 | inactive
CG8360 | SID104182877 | – | 38870 | 69097 | inactive
CG8281 | SID104190768 | – | 61103 | 71033 | inactive
plx | SID104192052 | – | 80600 | 62890 | inactive
plx | SID104192177 | – | 65700 | 61050 | inactive
CG9686 | SID104198231 | – | 3.77e5 | 3.56e5 | inactive
CG8321 | SID104186940 | – | 66573 | 54933 | inactive
CG11634 | SID104183492 | – | 53597 | 58143 | inactive
GstD11 | SID104195043 | – | 54233 | 53733 | inactive
CG14610 + asRNA:CR42738 | SID104192346 | – | 58890 | 58360 | inactive
Or33a | SID104183178 | – | 50973 | 71423 | inactive
CG11608 | SID104194126 | – | 61060 | 50653 | inactive
karr | SID104200473 | – | 2.93e5 | 2.98e5 | inactive

Part of the list above, reduced to “raw ATP luminescence, replicate 1”.
CG10352 [SID104199145]	3.29e5
beat-VII [SID104193572]	2.47e5
beat-VII [SID104194535]	34370
beat-VII [SID104194536]	33830
frm [SID104189545]	40483
r-cup [SID104200267]	2.74e5
CG18809 [SID104199610]	2.40e5
zetaCOP [SID104191204]	99567
CG13766 [SID104182063]	23993
Syn1 [SID104191595]	63590
Syn1 [SID104191596]	60800
Pal2 [SID104184299]	53590
Nxt1 [SID104184422]	47983
RNaseX25 [SID104191051]	39387

The listing continues:
gene | PubChem SID | SD above plate mean | raw ATP luminescence, replicate 1 | raw ATP luminescence, replicate 2 | call
CG13965 | SID104182099 | – | 45873 | 50540 | inactive
CG5070 | SID104199724 | – | 3.70e5 | 3.33e5 | inactive
CG10903 | SID104194073 | – | 57440 | 55270 | inactive
Prx3 | SID104195675 | – | 64357 | 57487 | inactive
Vha68-3 | SID104182601 | – | 51810 | 61300 | inactive
Alp1 | SID104191573 | – | 20767 | 24670 | inactive
PGRP-SC1a | SID104186274 | – | 42480 | 77763 | inactive
PolD1 | SID104190930 | – | 92237 | 86633 | inactive
CG13026 | SID104189698 | – | 68690 | 47397 | inactive
ChAT | SID104193106 | – | 2.58e5 | 2.80e5 | inactive
ChAT | SID104196401 | – | 58350 | 59900 | inactive
Spn75F | SID104189381 | – | 58783 | 60867 | inactive
Ama | SID104192281 | – | 44737 | 22410 | inactive
CG33251 (retired record) + CG9915 | SID104200009 | – | 2.96e5 | 2.99e5 | inactive
eco | SID104190798 | – | 40717 | 39780 | inactive
CG13681 (retired record) | SID104188698 | – | 1.17e5 | 1.64e5 | inactive
CG13681 (retired record) | SID104188699 | – | 1.29e5 | 1.61e5 | inactive
CG13681 (retired record) | SID104189830 | – | 68183 | 61563 | inactive
CG13681 (retired record) | SID104189831 | – | 70293 | 84170 | inactive
CG13681 (retired record) | SID104190719 | – | 66610 | 84507 | inactive
CG13681 (retired record) | SID104190721 | – | 48283 | 42307 | inactive
Stat92E | SID104196662 | – | 53773 | 54237 | inactive
HPS1 | SID104185987 | – | 63850 | 80270 | inactive
CG5421 | SID104182650 | – | 62807 | 71453 | inactive
PolD2 | SID104187939 | – | 63667 | 54277 | inactive
RIOK2 | SID104194205 | – | 58770 | 55810 | inactive
rost | SID104183395 | – | 72080 | 61737 | inactive
ssp5 | SID104194747 | – | 69683 | 37097 | inactive
mAChR-B | SID104196137 | – | 43773 | 53367 | inactive
CG42404 | SID104195350 | – | 59750 | 64450 | inactive
CG12126 | SID104185895 | – | 57193 | 78307 | inactive
NiPp1 | SID104187099 | – | 59487 | 60967 | inactive
CG31717 | SID104180913 | – | 3.01e5 | 3.06e5 | inactive
CG12289 | SID104189666 | – | 70120 | 56583 | inactive
CG15922 | SID104194920 | – | 69270 | 88580 | inactive
